# Test results published in the supplement of paper PMC10849652.
# By UniProt entry, the sequences of proteins in these tests, tags left out. Where a name states a change or a piece, a line headed by the entry shows the natural chain unless it says otherwise.
# UniProt P07951, whole entry, looked up: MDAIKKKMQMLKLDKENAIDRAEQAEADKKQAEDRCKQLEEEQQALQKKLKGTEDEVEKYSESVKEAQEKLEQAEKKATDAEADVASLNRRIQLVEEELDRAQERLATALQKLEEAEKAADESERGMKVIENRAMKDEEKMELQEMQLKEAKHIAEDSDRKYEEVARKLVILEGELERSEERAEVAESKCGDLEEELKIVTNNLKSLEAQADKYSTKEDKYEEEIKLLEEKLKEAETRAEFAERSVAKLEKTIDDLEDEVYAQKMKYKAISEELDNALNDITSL
# UniProt P12270, whole entry, looked up: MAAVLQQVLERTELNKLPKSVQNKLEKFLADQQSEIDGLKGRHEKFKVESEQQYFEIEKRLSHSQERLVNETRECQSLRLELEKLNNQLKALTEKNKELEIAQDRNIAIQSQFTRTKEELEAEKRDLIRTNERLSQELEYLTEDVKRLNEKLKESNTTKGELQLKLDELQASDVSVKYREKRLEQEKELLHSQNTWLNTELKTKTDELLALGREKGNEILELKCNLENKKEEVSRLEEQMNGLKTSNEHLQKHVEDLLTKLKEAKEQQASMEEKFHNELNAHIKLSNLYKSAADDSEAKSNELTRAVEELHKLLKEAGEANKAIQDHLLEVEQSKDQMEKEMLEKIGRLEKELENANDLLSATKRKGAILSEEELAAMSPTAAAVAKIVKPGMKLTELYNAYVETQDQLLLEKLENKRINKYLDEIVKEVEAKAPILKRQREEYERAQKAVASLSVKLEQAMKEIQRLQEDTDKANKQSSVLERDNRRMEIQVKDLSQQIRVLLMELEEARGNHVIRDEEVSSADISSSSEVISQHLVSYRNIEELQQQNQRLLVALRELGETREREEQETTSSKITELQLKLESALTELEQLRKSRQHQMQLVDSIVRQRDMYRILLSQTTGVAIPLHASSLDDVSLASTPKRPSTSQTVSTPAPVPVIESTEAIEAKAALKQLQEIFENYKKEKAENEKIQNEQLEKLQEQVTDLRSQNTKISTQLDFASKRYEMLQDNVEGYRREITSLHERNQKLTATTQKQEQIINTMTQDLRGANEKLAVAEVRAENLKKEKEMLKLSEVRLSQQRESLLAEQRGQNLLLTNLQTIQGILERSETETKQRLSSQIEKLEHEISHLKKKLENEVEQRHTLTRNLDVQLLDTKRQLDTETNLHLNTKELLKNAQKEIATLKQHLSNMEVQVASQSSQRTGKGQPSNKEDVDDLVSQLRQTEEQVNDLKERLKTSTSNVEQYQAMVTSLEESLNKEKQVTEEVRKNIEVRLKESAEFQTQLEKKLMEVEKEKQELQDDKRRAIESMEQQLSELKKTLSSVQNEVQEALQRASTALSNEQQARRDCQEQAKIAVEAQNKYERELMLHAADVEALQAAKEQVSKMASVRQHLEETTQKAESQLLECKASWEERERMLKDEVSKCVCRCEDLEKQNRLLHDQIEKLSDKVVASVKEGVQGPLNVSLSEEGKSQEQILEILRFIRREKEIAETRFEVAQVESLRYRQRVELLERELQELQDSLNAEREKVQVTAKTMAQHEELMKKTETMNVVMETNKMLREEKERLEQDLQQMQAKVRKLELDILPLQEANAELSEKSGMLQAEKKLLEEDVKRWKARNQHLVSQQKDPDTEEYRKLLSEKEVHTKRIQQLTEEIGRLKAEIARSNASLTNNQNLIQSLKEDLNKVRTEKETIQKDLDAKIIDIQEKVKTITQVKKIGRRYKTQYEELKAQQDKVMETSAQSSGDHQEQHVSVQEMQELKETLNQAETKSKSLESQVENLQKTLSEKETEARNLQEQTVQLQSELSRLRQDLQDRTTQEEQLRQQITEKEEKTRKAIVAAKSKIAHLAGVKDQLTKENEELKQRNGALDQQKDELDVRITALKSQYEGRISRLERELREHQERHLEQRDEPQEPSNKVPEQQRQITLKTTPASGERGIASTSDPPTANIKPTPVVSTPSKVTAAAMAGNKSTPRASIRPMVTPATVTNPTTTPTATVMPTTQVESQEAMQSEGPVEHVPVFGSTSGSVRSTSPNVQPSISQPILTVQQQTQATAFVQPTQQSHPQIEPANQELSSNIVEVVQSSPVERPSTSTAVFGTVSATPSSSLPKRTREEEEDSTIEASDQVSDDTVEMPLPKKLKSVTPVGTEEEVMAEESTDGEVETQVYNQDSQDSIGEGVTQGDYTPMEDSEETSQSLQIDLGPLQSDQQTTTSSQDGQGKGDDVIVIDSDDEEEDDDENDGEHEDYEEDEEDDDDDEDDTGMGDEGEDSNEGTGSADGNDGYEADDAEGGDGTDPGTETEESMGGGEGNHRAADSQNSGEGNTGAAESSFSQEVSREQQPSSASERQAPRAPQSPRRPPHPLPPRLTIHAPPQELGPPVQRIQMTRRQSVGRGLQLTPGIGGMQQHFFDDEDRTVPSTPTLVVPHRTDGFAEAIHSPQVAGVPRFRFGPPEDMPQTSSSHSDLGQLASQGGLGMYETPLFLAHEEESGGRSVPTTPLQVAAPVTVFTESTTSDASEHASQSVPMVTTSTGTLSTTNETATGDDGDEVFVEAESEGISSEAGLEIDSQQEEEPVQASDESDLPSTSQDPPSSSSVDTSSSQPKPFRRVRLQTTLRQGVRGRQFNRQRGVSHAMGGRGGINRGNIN
# UniProt Q8N4H5: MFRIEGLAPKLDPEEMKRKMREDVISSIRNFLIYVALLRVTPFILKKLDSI
# UniProt O95900: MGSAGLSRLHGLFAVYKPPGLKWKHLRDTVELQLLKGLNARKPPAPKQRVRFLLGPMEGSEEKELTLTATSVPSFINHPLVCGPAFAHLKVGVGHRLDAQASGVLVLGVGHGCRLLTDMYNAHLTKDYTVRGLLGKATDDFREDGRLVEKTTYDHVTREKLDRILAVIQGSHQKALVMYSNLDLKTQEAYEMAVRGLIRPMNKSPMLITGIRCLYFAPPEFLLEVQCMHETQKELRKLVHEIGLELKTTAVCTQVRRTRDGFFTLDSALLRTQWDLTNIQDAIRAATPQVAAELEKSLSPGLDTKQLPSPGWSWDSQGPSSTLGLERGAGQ
# UniProt Q8TBZ6: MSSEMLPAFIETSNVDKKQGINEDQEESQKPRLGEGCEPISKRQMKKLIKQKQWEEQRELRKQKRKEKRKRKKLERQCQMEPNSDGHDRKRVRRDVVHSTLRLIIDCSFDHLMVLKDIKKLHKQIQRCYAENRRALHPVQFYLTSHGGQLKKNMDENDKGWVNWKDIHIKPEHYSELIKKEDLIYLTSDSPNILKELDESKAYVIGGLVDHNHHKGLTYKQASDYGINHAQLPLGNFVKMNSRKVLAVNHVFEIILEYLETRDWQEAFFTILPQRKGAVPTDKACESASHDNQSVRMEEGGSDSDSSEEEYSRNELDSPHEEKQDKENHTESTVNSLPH
# UniProt Q9Y5R8, whole entry, looked up: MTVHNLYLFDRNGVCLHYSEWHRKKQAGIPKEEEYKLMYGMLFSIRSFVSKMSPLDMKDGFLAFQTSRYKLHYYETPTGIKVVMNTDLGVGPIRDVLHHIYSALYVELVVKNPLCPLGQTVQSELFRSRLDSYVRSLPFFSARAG
# UniProt Q9C037: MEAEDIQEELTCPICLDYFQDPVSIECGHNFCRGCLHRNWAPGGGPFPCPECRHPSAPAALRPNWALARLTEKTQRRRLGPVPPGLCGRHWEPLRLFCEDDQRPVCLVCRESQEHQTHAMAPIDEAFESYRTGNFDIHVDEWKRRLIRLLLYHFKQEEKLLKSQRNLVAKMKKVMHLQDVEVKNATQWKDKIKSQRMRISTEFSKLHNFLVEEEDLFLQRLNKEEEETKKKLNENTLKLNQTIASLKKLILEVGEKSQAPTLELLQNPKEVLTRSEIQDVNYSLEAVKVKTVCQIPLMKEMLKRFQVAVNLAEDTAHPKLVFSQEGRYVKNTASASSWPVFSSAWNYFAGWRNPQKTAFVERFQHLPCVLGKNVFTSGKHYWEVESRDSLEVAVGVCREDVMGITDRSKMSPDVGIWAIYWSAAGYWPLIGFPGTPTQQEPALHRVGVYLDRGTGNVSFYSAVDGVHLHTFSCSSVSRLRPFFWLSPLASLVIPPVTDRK
# UniProt P36406: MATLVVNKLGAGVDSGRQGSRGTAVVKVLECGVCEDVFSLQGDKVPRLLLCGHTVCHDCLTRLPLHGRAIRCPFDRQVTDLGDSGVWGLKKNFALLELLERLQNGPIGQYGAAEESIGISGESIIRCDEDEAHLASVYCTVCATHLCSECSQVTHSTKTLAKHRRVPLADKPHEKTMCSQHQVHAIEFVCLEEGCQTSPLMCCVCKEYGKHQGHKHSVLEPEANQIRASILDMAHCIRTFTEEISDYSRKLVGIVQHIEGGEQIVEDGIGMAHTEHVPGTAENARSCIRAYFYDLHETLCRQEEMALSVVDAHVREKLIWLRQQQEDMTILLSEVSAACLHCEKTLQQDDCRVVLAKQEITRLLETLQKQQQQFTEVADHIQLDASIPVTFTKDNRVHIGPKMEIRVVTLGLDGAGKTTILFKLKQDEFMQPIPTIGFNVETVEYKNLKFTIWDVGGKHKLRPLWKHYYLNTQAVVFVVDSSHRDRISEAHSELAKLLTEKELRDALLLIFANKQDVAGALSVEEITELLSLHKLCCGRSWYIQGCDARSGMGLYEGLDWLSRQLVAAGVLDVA
# UniProt O75674: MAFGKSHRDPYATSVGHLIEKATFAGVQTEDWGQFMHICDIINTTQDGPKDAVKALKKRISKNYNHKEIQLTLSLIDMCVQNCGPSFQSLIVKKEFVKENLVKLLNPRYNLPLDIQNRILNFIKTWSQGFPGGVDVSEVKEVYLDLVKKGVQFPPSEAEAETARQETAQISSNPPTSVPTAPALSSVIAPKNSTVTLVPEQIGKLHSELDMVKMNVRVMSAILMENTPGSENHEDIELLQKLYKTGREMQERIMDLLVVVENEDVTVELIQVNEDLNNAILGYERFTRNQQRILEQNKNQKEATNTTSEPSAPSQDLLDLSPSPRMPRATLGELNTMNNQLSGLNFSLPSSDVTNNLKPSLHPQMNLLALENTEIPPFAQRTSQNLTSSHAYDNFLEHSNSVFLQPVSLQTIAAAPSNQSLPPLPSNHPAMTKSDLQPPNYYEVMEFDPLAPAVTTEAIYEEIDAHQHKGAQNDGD
# UniProt Q629K1: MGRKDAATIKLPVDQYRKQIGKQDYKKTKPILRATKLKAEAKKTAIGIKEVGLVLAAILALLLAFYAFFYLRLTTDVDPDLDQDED
# This is one part of the list.
# What was measured:
# Experiment in all cases: log2 fold change, soluble protein after heating vs DMSO (PISA); higher = thermal stabilisation; K562 cells, 10 uM, 30 min; active = over 0.2 and 3.5 SD of the protein, either way, in both replicates (recomputed)
# [1] = compound: CS(=O)(=O)c1ccc(-c2cnc(N)c(C(=O)Nc3ccccc3)n2)cc1
# Method in brief: (§1)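 K562 cells at 2×10^6 cells/mL were treated with 10 μM compound for 30 min. Aliquots were heated for 3 min across 48°C-58°C, pooled, and extracted in PBS with 0.5% NP-40 at 4°C; soluble protein was the supernatant after 21,000xg for 90 min. Soluble protein was quantified by TMTpro 16plex LC-MS/MS with channel sums equalised, and reported as log2 fold change in thermal stability against DMSO controls, with values from duplicates.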
# crizotinib = compound: C[C@@H](Oc1cc(-c2cnn(C3CCNCC3)c2)cnc1N)c1c(Cl)ccc(F)c1Cl [crizotinib]
# Method in brief: as §1
# [2] = compound: C[C@@H]1COCCN1C2=NC(=NC(=C2)C3(CC3)S(=O)(=O)C)C4=C5C=CNC5=CC=C4
# Method in brief: as §1
# [3] = compound: C[C@H](C1=CC=C(C=C1)C(=O)NC2=C3C=CNC3=NC=C2)N
# Method in brief: as §1
# gandotinib = compound: Cc1cc(Nc2cc(CN3CCOCC3)c3nc(C)c(Cc4ccc(Cl)cc4F)n3n2)n[nH]1 [gandotinib]
# Method in brief: as §1
# [4] = compound: Cc1cc(SCc2sc(-c3ccc(C(F)(F)F)cc3)nc2C)ccc1OCC(=O)O
# Method in brief: as §1
# doramapimod = compound: Cc1ccc(-n2nc(C(C)(C)C)cc2NC(=O)Nc2ccc(OCCN3CCOCC3)c3ccccc23)cc1 [doramapimod]
# Method in brief: as §1
# ispinesib = compound: Cc1ccc(C(=O)N(CCCN)[C@@H](c2nc3cc(Cl)ccc3c(=O)n2Cc2ccccc2)C(C)C)cc1 [ispinesib]
# Method in brief: as §1
# bafetinib = compound: Cc1ccc(NC(=O)c2ccc(CN3CC[C@H](N(C)C)C3)c(C(F)(F)F)c2)cc1Nc1nccc(-c2cncnc2)n1 [bafetinib]
# Method in brief: as §1
# [5] = compound: Cc1cccc(CC(=O)N2CCc3c2ccc(-c2cn(C)c4ncnc(N)c24)c3F)n1
# Method in brief: as §1
# nilotinib = compound: Cc1cn(-c2cc(NC(=O)c3ccc(C)c(Nc4nccc(-c5cccnc5)n4)c3)cc(C(F)(F)F)c2)cn1 [nilotinib]
# Method in brief: as §1
# [6] = compound: Cc1nc(Nc2n[nH]c3c2CN(C(=O)N[C@H](CN(C)C)c2ccccc2)C3(C)C)c2sccc2n1
# Method in brief: as §1
# dasatinib = compound: Cc1nc(Nc2ncc(C(=O)Nc3c(C)cccc3Cl)s2)cc(N2CCN(CCO)CC2)n1 [dasatinib]
# Method in brief: as §1
# [7] = compound: Cc1ncc(-c2ccnc(Nc3ccc(S(C)(=O)=O)cc3)n2)n1C(C)C
# Method in brief: as §1
# [8] = compound: Cn1cc(-c2ccc3c(c2)CCN3C(=O)Cc2cccc(C(F)(F)F)c2)c2c(N)ncnc21
# Method in brief: as §1
# [9] = compound: Cn1cc(-c2ccc3nnc(C(F)(F)c4ccc5ncccc5c4)n3n2)cn1
# Method in brief: as §1
# tipifarnib = compound: Cn1cncc1[C@@](N)(c1ccc(Cl)cc1)c1ccc2c(c1)c(-c1cccc(Cl)c1)cc(=O)n2C [tipifarnib]
# Method in brief: as §1
# mubritinib = compound: FC(F)(F)c1ccc(/C=C/c2nc(COc3ccc(CCCCn4ccnn4)cc3)co2)cc1 [mubritinib]
# Method in brief: as §1
# tozasertib = compound: Cc1cc(Nc2cc(N3CCN(C)CC3)nc(Sc3ccc(NC(=O)C4CC4)cc3)n2)n[nH]1 [tozasertib]
# Method in brief: as §1
# duvelisib = compound: C[C@H](Nc1ncnc2nc[nH]c12)c1cc2cccc(Cl)c2c(=O)n1-c1ccccc1 [duvelisib]
# Method in brief: as §1
Target,log2 fold change [1],log2 fold change (crizotinib),log2 fold change [2],log2 fold change [3],log2 fold change (gandotinib),log2 fold change [4],log2 fold change (doramapimod),log2 fold change (ispinesib),log2 fold change (bafetinib),log2 fold change [5],log2 fold change (nilotinib),log2 fold change [6],log2 fold change (dasatinib),log2 fold change [7],log2 fold change [8],log2 fold change [9],log2 fold change (tipifarnib),log2 fold change (mubritinib),log2 fold change (tozasertib),log2 fold change (duvelisib)
TPM2 (UniProt P07951),inactive: -0.016,inactive: -0.012,inactive: -0.167,inactive: -0.29,inactive: -0.046,inactive: -0.117,inactive: 0.059,inactive: 0.122,inactive: 0.034,inactive: 0.003,inactive: 0.126,inactive: -0.097,inactive: 0.072,inactive: 0.064,inactive: -0.019,inactive: -0.015,inactive: 0.086,inactive: 0.025,,
TPR (UniProt P12270),inactive: -0.03,active: 0.297,inactive: 0.013,inactive: -0.083,inactive: 0.008,inactive: -0.027,inactive: 0.037,inactive: 0.223,inactive: -0.011,inactive: -0.004,inactive: 0.056,inactive: 0.04,inactive: 0.158,inactive: 0.047,inactive: -0.184,inactive: -0.017,inactive: 0.002,inactive: 0.089,active: 0.349,
TOMM5 isoform 2 (UniProt Q8N4H5),inactive: 0.043,inactive: 0.139,inactive: 0.124,inactive: -0.053,inactive: 0.136,inactive: -0.023,inactive: -0.078,inactive: -0.051,inactive: -0.141,inactive: -0.114,inactive: 0.079,inactive: 0.004,inactive: -0.004,inactive: -0.079,inactive: 0.062,inactive: 0.217,inactive: 0.107,inactive: 0.038,,
TRUB2 (UniProt O95900),inactive: 0.323,inactive: 0.143,inactive: -0.026,,inactive: 0.018,inactive: -0.057,inactive: 0.549,,,inactive: 0.059,,,inactive: -0.03,,,,inactive: 0.069,,,inactive: 0.145
TOE1 (UniProt Q96GM8),inactive: 0.013,inactive: 0,inactive: -0.221,inactive: 0.211,inactive: 0.219,inactive: 0.066,inactive: 0.065,inactive: -0.021,inactive: 0.301,inactive: 0.033,inactive: 0.152,inactive: 0.178,inactive: 0.097,inactive: 0.017,inactive: -0.113,inactive: -0.072,inactive: -0.036,inactive: 0.111,,
TRMT10A (UniProt Q8TBZ6),inactive: 0.012,inactive: 0.01,inactive: 0.093,inactive: -0.072,inactive: 0,inactive: 0.016,inactive: -0.023,inactive: 0.028,inactive: 0.006,inactive: -0.022,inactive: 0.005,inactive: -0.018,inactive: -0.059,inactive: -0.002,inactive: 0.104,inactive: 0.008,inactive: -0.022,inactive: 0.05,,
TRAPPC1 (UniProt Q9Y5R8),inactive: 0.038,inactive: 0.002,,inactive: -0.045,inactive: -0.028,inactive: 0.034,inactive: 0.151,inactive: -0.057,inactive: -0.019,inactive: 0.139,inactive: -0.213,inactive: 0.029,inactive: -0.134,inactive: -0.077,inactive: 0.095,inactive: 0.003,inactive: -0.016,inactive: -0.035,inactive: -0.015,inactive: 0.007
TRIM4 (UniProt Q9C037),inactive: 0.114,inactive: 0.045,inactive: 0.037,inactive: 0.061,inactive: -0.023,,inactive: 0.092,inactive: -0.033,inactive: 0.039,inactive: -0.015,inactive: 0.111,inactive: 0.101,,inactive: 0.058,inactive: 0.042,inactive: -0.138,inactive: -0.014,inactive: 0.033,,
TRIM23 (UniProt P36406),inactive: 0.143,inactive: 0.152,,inactive: -0.122,inactive: 0.128,inactive: 0.001,inactive: -0.043,inactive: 0.115,inactive: -0.006,inactive: -0.121,inactive: -0.091,inactive: 0.001,inactive: -0.004,inactive: 0.088,inactive: 0.126,inactive: 0.002,,inactive: 0.028,,
TOM1L1 (UniProt O75674),inactive: -0.001,inactive: 0.08,inactive: 0.184,inactive: -0.059,active: -0.342,inactive: 0.011,inactive: -0.021,inactive: -0.016,inactive: -0.025,active: -0.265,inactive: -0.003,inactive: -0.069,inactive: -0.04,inactive: 0.087,inactive: 0.031,inactive: 0.032,inactive: 0.06,inactive: 0.034,,
TRIQK (UniProt Q629K1),inactive: 0.003,inactive: 0.024,inactive: 0.072,inactive: 0.017,,inactive: -0.006,inactive: 0.008,inactive: 0.182,inactive: -0.059,,,,inactive: 0.007,,inactive: -0.007,inactive: -0.03,,inactive: -0.002,,

# Shown bar-delimited: part of the list above.
Target | log2 fold change [1] | log2 fold change (crizotinib) | log2 fold change [2] | log2 fold change [3] | log2 fold change (gandotinib) | log2 fold change [4] | log2 fold change (doramapimod) | log2 fold change (ispinesib) | log2 fold change (bafetinib) | log2 fold change [5] | log2 fold change (nilotinib) | log2 fold change [6] | log2 fold change (dasatinib) | log2 fold change [7] | log2 fold change [8] | log2 fold change [9] | log2 fold change (tipifarnib) | log2 fold change (mubritinib) | log2 fold change (tozasertib) | log2 fold change (duvelisib)
TOMM5 isoform 2 (UniProt Q8N4H5) | inactive: 0.043 | inactive: 0.139 | inactive: 0.124 | inactive: -0.053 | inactive: 0.136 | inactive: -0.023 | inactive: -0.078 | inactive: -0.051 | inactive: -0.141 | inactive: -0.114 | inactive: 0.079 | inactive: 0.004 | inactive: -0.004 | inactive: -0.079 | inactive: 0.062 | inactive: 0.217 | inactive: 0.107 | inactive: 0.038 |  | 
TRUB2 (UniProt O95900) | inactive: 0.323 | inactive: 0.143 | inactive: -0.026 |  | inactive: 0.018 | inactive: -0.057 | inactive: 0.549 |  |  | inactive: 0.059 |  |  | inactive: -0.03 |  |  |  | inactive: 0.069 |  |  | inactive: 0.145
